In patent US20230303681A1:
No constants are given. Whether binding was seen depends on the method and setting. Some results given as binding are weak or reduced against the parent protein; the word gives no strength.

By UniProt entry, the sequences of proteins in these tests, tags left out. Where a name states a change or a piece, a line headed by the entry shows the natural chain unless it says otherwise.
UniProt Q9NUM4: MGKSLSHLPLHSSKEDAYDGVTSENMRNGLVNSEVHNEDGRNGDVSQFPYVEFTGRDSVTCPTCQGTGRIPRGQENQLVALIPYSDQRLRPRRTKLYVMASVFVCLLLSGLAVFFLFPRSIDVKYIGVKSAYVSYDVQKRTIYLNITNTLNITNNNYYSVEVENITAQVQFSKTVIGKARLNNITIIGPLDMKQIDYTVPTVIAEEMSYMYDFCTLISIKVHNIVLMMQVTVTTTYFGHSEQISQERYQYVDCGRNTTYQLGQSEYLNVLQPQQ
UniProt Q80X71: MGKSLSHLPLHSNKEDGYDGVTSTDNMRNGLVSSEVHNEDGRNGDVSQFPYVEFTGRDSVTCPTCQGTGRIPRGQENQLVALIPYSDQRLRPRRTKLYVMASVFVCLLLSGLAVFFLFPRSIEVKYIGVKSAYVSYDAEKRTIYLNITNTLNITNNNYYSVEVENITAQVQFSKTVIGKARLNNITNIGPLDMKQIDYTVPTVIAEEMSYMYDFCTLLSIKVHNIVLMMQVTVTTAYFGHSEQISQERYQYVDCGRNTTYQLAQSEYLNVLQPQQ

Columns and labels:
[1] = biological target: GST-fusion human TMEM106B truncated (human); experiment: ELISA, supernatant
[2] = biological target: human TMEM106B (human) (UniProt Q9NUM4); experiment: FACS, A549 and HEK+huTMEM, maximum signal
[3] = biological target: cynomolgus (cyno) TMEM106B (cynomolgus); experiment: as told for bin 3 and bin 4 antibodies
[4] = biological target: human TMEM106B (human) (UniProt Q9NUM4); experiment: as told for bin 3 and bin 4 antibodies
[5] = biological target: mouse TMEM106B (mouse) (UniProt Q80X71); experiment: as told for bin 3 and bin 4 antibodies
[6] = biological target: cynomolgus (cyno) TMEM106B (cynomolgus); experiment: as told for community 1 antibodies
[7] = biological target: human TMEM106B (human) (UniProt Q9NUM4); experiment: as told for community 1 antibodies
[8] = biological target: mouse TMEM106B (mouse) (UniProt Q80X71); experiment: as told for community 1 antibodies

Measured: binding

B1: anti-TMEM106B antibody TM-3 (antibody, V domains shown)
VH: QVTLKESGPGIVQPSQTLSLTCSFSGFSLNTLGRGVGWIRQPSGKGLEWLAKIWWNDDKFYYPALKSRLTISKDTSKNQIFLKIANVDTADSATYYCARIAGGTGAAYWGQGTTLTVSS
VL: DIVMTQAAFSNPVTLGTSASISCRSSKSLLHSNGITYLYWYLQKPGQSPQLLISQMSSLASGVPDRFSSGGSGTDFTLRISRVEAEDVGVFYCAQNLELPWTFGGGTKLELK
binds: [1] | [2]

B2: anti-TMEM106B antibody TM-7 (antibody, V domains shown)
VH: EVQLQQSGPVLVKPGPPVKISCKASGFTFTDYYIHWVKLSHGKSLEWIGLVYPYNGDTDYNQKFKGKATLTVDTSSSTAYMELNSLTSEDSAVYYCARTYYANSPDYWGQGTTVTVSS
VL: DIVMTQSPSSLSVSAGEKVTMSCKSSQSLLNSGNQRNYLAWYQQKPGQPPKLLIYGASTRESGVPDRFTGSGSGTDFTLTISNVQAEDLAVYYCQNDHSYPLTFGAGTKLELK
binds: [1] | [2] | [3] | [4] | [5]

B3: anti-TMEM106B antibody TM-26 (antibody, V domains shown)
VH: QVQLQQSGAELIRPGTSVKVSCKASGYAFTNYLIEWVKKRPGQGLEWIGVINPGSGITNYNEKFKGKATLTADKSSSTAYMQLSSLTSEDSAVYFCARSDFITTVVADYWGQGTTVTVSS
VL: DIVVTQTPLSLPVSFGDQVSISCRSSQSLTNYYGNTYLSWYLHKPGQSPQLLIYGISNRFSGVPDRFSGSGSGTDFTLKISTIKPEDLGMYYCLQGTHQPRTFGGGTKLEIK
binds: [6] | [7] | [8] | [1]

B4: anti-TMEM106B antibody TM-30 (antibody, V domains shown)
VH: QVQLQQSGPELVKPGASVKLSCKASDNTFTNYDVNWVRQRPGQGLEWIGWIYPRDGTTIYNEKFKGRATLTVDTSSSTAYMELHSLTSEDSAVFFCARTLPQAMDYWGQGTSVTVSS
VL: DVLMTQSPLSLPVSLGDQVSISCRSSQTIVHRNGNTYLEWYLQKPGQSPKLLIYKVSNRFSGVPDRFSGSGSGTDFTLKISRVEAEDLGVYYCFQGSHLPWTFGGGTKLEIK
binds: [2]
